{
  "source": "the supplement of paper PMC8728848",
  "binders": {"B1": {"name": "PX14379D-pdi-530-26-530 (Parabacteroides distasonis) (protein)", "chain": "DETVYDKLPADDFGQSTAELNALIGNSHNTMKKFWTEYMHLSECSGSMAVTPTRRGGDWYDGGQYREIYMHTWTSQTSRVKSAWKAATEAIGTCNEAIRKLQNSEILTEEEKAQDVADLRGVRAFWIYVMMDYWGNIPLLTEFHPTDKVFPGNSSRQEVFDWLIQEVEEIKDICPPATTENYGSFTQGAAYSLLAKLYLNAEAWGVTFSGNAYQKVIDNCDKVMAMGYILEPNWKDNFSVTNENSKEAILAATFSSSDTGNDGNVKNELHNNTLHYKDYLSLGITASGTWNGICAQPEYVRLFDEEDARLDGTFLTGLMIDKSTGKPIMTDHNNELNHTIDVNMIPGMEYDGTNWSAVEQHDGARCFKWEFASDLTSSMGNDFHIFRLADIYLMKAEALLRGGGSVSEATALVNTIRERGYGNSDHNYATVTLKEVQLERRLELAWEVYSRQDDIRFGCFTTGMWPQSNCERKADDYLKLLPVSQDAWQVNPNLKQNPGYAAFSK"}},
  "assay_in_all_cases": "glycan array binding signal (z-score within array); higher = stronger binding",
  "conditions_in_all_cases": "glycan notation: IUPAC condensed, linker removed",
  "key": {"[1]": {"target": "Fuc(a1-2)[Gal(a1-3)]Gal(b1-4)GlcNAc(b1-2)Man(a1-3)[Fuc(a1-2)[Gal(a1-3)]Gal(b1-4)GlcNAc(b1-2)Man(a1-6)]Man(b1-4)GlcNAc(b1-4)[Fuc(a1-6)]GlcNAc", "in_short": "(§1)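 Glycan array data were curated from 3228 arrays in the Consortium for Functional Glycomics database and kept only where the protein sequence was available. Glycan names were converted to IUPAC-condensed notation, and columns mapping to the same glycan were averaged. The binding signal is a within-array Z-score, averaged across arrays of the same protein sequence at different concentrations or buffers and across linkers. Negative Z-scores can be read as non-binding.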"}, "[2]": {"target": "Fuc(a1-2)[Gal(a1-3)]Gal(b1-4)GlcNAc(b1-3)GalNAc", "in_short": "as §1"}, "[3]": {"target": "Fuc(a1-2)[Gal(a1-3)]Gal(b1-4)GlcNAc(b1-3)[Fuc(a1-2)[Gal(a1-3)]Gal(b1-4)GlcNAc(b1-6)]GalNAc", "in_short": "as §1"}, "[4]": {"target": "Fuc(a1-2)[Gal(a1-3)]Gal(b1-4)GlcNAc(b1-6)GalNAc", "in_short": "as §1"}, "[5]": {"target": "Fuc(a1-2)[Gal(a1-3)]Gal(b1-4)[Fuc(a1-3)]Glc", "in_short": "as §1"}, "[6]": {"target": "Fuc(a1-2)[Gal(a1-3)]Gal(b1-4)[Fuc(a1-3)]GlcNAc", "in_short": "as §1"}, "[7]": {"target": "Fuc(a1-2)[Gal(a1-3)]Gal(b1-4)[Fuc(a1-3)]GlcNAc(b1-3)GalNAc", "in_short": "as §1"}, "[8]": {"target": "Fuc(a1-2)[Gal(a1-4)]Gal(b1-4)GlcNAc", "in_short": "as §1"}, "[9]": {"target": "Fuc(a1-2)[GalNAc(a1-3)]Gal", "in_short": "as §1"}, "[10]": {"target": "Fuc(a1-2)[GalNAc(a1-3)]Gal(b1-3)GalNAc(a1-3)[Fuc(a1-2)]Gal(b1-4)GlcNAc", "in_short": "as §1"}, "[11]": {"target": "Fuc(a1-2)[GalNAc(a1-3)]Gal(b1-3)GalNAc(b1-3)Gal(a1-4)Gal(b1-4)Glc", "in_short": "as §1"}, "[12]": {"target": "Fuc(a1-2)[GalNAc(a1-3)]Gal(b1-3)GlcNAc", "in_short": "as §1"}, "[13]": {"target": "Fuc(a1-2)[GalNAc(a1-3)]Gal(b1-3)GlcNAc(b1-2)Man(a1-3)[Fuc(a1-2)[GalNAc(a1-3)]Gal(b1-3)GlcNAc(b1-2)Man(a1-6)]Man(b1-4)GlcNAc(b1-4)GlcNAc", "in_short": "as §1"}, "[14]": {"target": "Fuc(a1-2)[GalNAc(a1-3)]Gal(b1-3)GlcNAc(b1-2)Man(a1-3)[Fuc(a1-2)[GalNAc(a1-3)]Gal(b1-3)GlcNAc(b1-2)Man(a1-6)]Man(b1-4)GlcNAc(b1-4)[Fuc(a1-6)]GlcNAc", "in_short": "as §1"}, "[15]": {"target": "Fuc(a1-2)[GalNAc(a1-3)]Gal(b1-3)GlcNAc(b1-3)GalNAc", "in_short": "as §1"}, "[16]": {"target": "Fuc(a1-2)[GalNAc(a1-3)]Gal(b1-3)GlcNAc(b1-6)GalNAc", "in_short": "as §1"}, "[17]": {"target": "Fuc(a1-2)[GalNAc(a1-3)]Gal(b1-4)Glc", "in_short": "as §1"}, "[18]": {"target": "Fuc(a1-2)[GalNAc(a1-3)]Gal(b1-4)GlcNAc", "in_short": "as §1"}, "[19]": {"target": "Fuc(a1-2)[GalNAc(a1-3)]Gal(b1-4)GlcNAc(b1-2)Man", "in_short": "as §1"}, "[20]": {"target": "Fuc(a1-2)[GalNAc(a1-3)]Gal(b1-4)GlcNAc(b1-2)Man(a1-3)[Fuc(a1-2)[GalNAc(a1-3)]Gal(b1-4)GlcNAc(b1-2)Man(a1-6)]Man(b1-4)GlcNAc(b1-4)GlcNAc", "in_short": "as §1"}, "[21]": {"target": "Fuc(a1-2)[GalNAc(a1-3)]Gal(b1-4)GlcNAc(b1-2)Man(a1-3)[Fuc(a1-2)[GalNAc(a1-3)]Gal(b1-4)GlcNAc(b1-2)Man(a1-6)]Man(b1-4)GlcNAc(b1-4)[Fuc(a1-6)]GlcNAc", "in_short": "as §1"}, "[22]": {"target": "Fuc(a1-2)[GalNAc(a1-3)]Gal(b1-4)GlcNAc(b1-3)Gal(b1-4)GlcNAc", "in_short": "as §1"}, "[23]": {"target": "Fuc(a1-2)[GalNAc(a1-3)]Gal(b1-4)GlcNAc(b1-3)Gal(b1-4)GlcNAc(b1-3)Gal(b1-4)GlcNAc", "in_short": "as §1"}, "[24]": {"target": "Fuc(a1-2)[GalNAc(a1-3)]Gal(b1-4)GlcNAc(b1-3)GalNAc", "in_short": "as §1"}, "[25]": {"target": "Fuc(a1-2)[GalNAc(a1-3)]Gal(b1-4)GlcNAc(b1-3)[Fuc(a1-2)[GalNAc(a1-3)]Gal(b1-4)GlcNAc(b1-6)]GalNAc", "in_short": "as §1"}, "[26]": {"target": "Fuc(a1-2)[GalNAc(a1-3)]Gal(b1-4)GlcNAc(b1-6)GalNAc", "in_short": "as §1"}, "[27]": {"target": "Fuc(a1-2)[GalNAc(a1-3)]Gal(b1-4)[Fuc(a1-3)]GlcNAc", "in_short": "as §1"}, "[28]": {"target": "Fuc(a1-2)[GalNAc(a1-3)]Gal(b1-4)[Fuc(a1-3)]GlcNAc(b1-3)GalNAc", "in_short": "as §1"}, "[29]": {"target": "Fuc(a1-2)[GalNAc(a1-4)]Gal(b1-4)GlcNAc", "in_short": "as §1"}, "[30]": {"target": "Fuc(a1-2)[GalNAc(b1-3)]Gal", "in_short": "as §1"}},
  "note": "Some of the results follow.",
  "data": [
    {"binder": "B1", "values": [
      {"measurement": "glycan array binding signal (z-score)", "setting": "[1]", "value": -0.093},
      {"measurement": "glycan array binding signal (z-score)", "setting": "[2]", "value": -0.332},
      {"measurement": "glycan array binding signal (z-score)", "setting": "[3]", "value": -0.331},
      {"measurement": "glycan array binding signal (z-score)", "setting": "[4]", "value": -0.679},
      {"measurement": "glycan array binding signal (z-score)", "setting": "[5]", "value": 0.137},
      {"measurement": "glycan array binding signal (z-score)", "setting": "[6]", "value": 0.487},
      {"measurement": "glycan array binding signal (z-score)", "setting": "[7]", "value": -0.46},
      {"measurement": "glycan array binding signal (z-score)", "setting": "[8]", "value": 0.172},
      {"measurement": "glycan array binding signal (z-score)", "setting": "[9]", "value": -0.177},
      {"measurement": "glycan array binding signal (z-score)", "setting": "[10]", "value": -1.03},
      {"measurement": "glycan array binding signal (z-score)", "setting": "[11]", "value": 0.364},
      {"measurement": "glycan array binding signal (z-score)", "setting": "[12]", "value": -0.423},
      {"measurement": "glycan array binding signal (z-score)", "setting": "[13]", "value": 0.075},
      {"measurement": "glycan array binding signal (z-score)", "setting": "[14]", "value": -0.214},
      {"measurement": "glycan array binding signal (z-score)", "setting": "[15]", "value": -0.428},
      {"measurement": "glycan array binding signal (z-score)", "setting": "[16]", "value": 0.43},
      {"measurement": "glycan array binding signal (z-score)", "setting": "[17]", "value": -0.433},
      {"measurement": "glycan array binding signal (z-score)", "setting": "[18]", "value": -0.757},
      {"measurement": "glycan array binding signal (z-score)", "setting": "[19]", "value": -0.631},
      {"measurement": "glycan array binding signal (z-score)", "setting": "[20]", "value": 0.083},
      {"measurement": "glycan array binding signal (z-score)", "setting": "[21]", "value": -0.211},
      {"measurement": "glycan array binding signal (z-score)", "setting": "[22]", "value": -0.668},
      {"measurement": "glycan array binding signal (z-score)", "setting": "[23]", "value": -0.472},
      {"measurement": "glycan array binding signal (z-score)", "setting": "[24]", "value": 1.29},
      {"measurement": "glycan array binding signal (z-score)", "setting": "[25]", "value": -0.832},
      {"measurement": "glycan array binding signal (z-score)", "setting": "[26]", "value": 0.293},
      {"measurement": "glycan array binding signal (z-score)", "setting": "[27]", "value": -0.843},
      {"measurement": "glycan array binding signal (z-score)", "setting": "[28]", "value": 0.236},
      {"measurement": "glycan array binding signal (z-score)", "setting": "[29]", "value": -0.676},
      {"measurement": "glycan array binding signal (z-score)", "setting": "[30]", "value": -0.623}
    ]}
  ]
}
